Amino acid sequences for entries named in this document (tags omitted).
UniProt P20263: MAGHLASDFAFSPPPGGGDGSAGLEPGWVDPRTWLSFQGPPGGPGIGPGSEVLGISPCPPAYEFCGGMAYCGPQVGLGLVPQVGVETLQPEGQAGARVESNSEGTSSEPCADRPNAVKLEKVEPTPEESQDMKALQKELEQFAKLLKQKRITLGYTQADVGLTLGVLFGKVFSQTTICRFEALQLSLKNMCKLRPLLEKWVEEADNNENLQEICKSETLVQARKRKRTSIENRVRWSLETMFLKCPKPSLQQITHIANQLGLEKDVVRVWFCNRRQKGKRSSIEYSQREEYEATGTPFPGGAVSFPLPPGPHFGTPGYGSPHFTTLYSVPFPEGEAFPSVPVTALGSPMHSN

According to paper PMC2860244:

molecular target: Oct4-FTAP fusion protein (mouse), P20263; experiment: affinity purification with mass spectrometry; one-step purification on anti-FLAG M2 Dynal beads from whole-cell extracts of Oct4-FTAP ESCs against unmodified control cells (AB2.2); 150 mM NaCl, 0.1% NP-40, 90 min, 4°C; elution with AcTEV protease; three independent purifications; LC-MS/MS; settings: remark: other sources report otherwise

binding	Binder
binds	zinc finger protein 217, Q3U0X6 1-1041 (protein) MPTQSLLVYMDGPEVLSSSLGSQMEVDDAVPIKGPVAVPFRAAQEKSMAVAEGHMPLDCMFCSQVFSQAEDLSQHVLLQHRPTLCEPAVLRVEAEYLSPLDKALEPTEPALEKSGEDPEELSCDVCGQTFPVAFDVESHMKKHKDSFTYGCSMCGRRFKEPWFLKNHMRTHNGKSGTRSKLQQGMESPVTINEVVQPHAPGSISTPYKICMVCGFLFPNKQSLIEHSKVHAKETVPSASNVAPDDHREEPTSPREELLQFLNLRPRSTAGSTVKPMTCIPQLDPFTTYQAWQLATKGKVAVAQEEVKESGQEGSTDNDDSCSEKEELGEIWVGGKAEGSGKSKTSKSSCPGLSQDKEKPRHANSEVPSGDSDPKLSSSKEKPTHCSECSKAFRTYHQLVLHSRVHRKDRRTDALSPTMAVDARQPGTCSPDLSTTLEDSGAGDREGGSEDGSEDGLPDGLHLDKNDDGGKAKPLPSSRECSYCGKFFRSNYYLNIHLRTHTGEKPYKCEFCEYAAAQKTSLRYHLERHHKDKQPVDAAAESKSEGRSQEPQDALLTAADSAQTKNLKRFLDGAKDVKGSPPAKQLKEMPSVFQSVLSPAHSNDTQDFHKHAADSAEKARKSPAPTYLDMQRKKAGEPQASSPVCRLEGVGSLAREAGHREKMDQDADYRHKPGADCQDRPLNLSLGPLHACPAISLSKCLIPSIACPFCTFKTFYPEVLMMHQRLEHRYNPDPHKNGSSKSVLRNRRTGCPPALLGKDVPPLSGLHKPKAKTAFSPHSKSLHSEKARQGASGPSKAPQTSGPDNSTLAPSNLKSHRSQPNAGGTSATRQQQSELFPKGGVPAAMDKVKRPEPKLKSLPASPSQSPLSSNNSNGSVEYPVKVDGPWAQQGRDYYCHRNSGSAAAEYSEPHPKRLKSSAVSLDTEHAGTNGRRGFELPKYHVVRSITSLLPPECVRPPPVLPHKARFLSPGEVESPSVLAVQKPYSASGPLYTCGPVGHAGGSPALEGKRPVSHQHLSNSMLQKRSYENFIGNTHYRPNDKKP

molecular target: Oct4-FTAP fusion protein (mouse) (UniProt P20263); experiment: as above; settings: not given

binding	Binder
binds	RYBP (protein, UniProt Q8CCI5 1-228) MTMGDKKSPTRPKRQAKPAADEGFWDCSVCTFRNSAEAFKCSICDVRKGTSTRKPRINSQLVAQQVAQQYATPPPPKKEKKEKVEKPDKEKPEKDKDISPSVTKKNTNKKTKPKSDILKDPPSEANSIQSANATTKTSETNHTSRPRLKNVDRSTAQQLAVTVGNVTVIITDFKEKTRSSSTSSSTVTSSAGSEQQNQSSSGSESTDKGSSRSSTPKGDMSAVNDESF
binds	Sal-like 1 (protein, UniProt Q9ER74 1-1322) MSRRKQAKPQHFQSDPEVASLPRRDGDTEKGQPSRPTKSKDAHVCGRCCAEFFELSDLLLHKKSCTKNQLVLIVNESPASPAKTFPPGPSLNDPDDQMKDAANKADQEDCSDLSEPKGLDREESMEVEVPVATTTTTTTGGSGGSGGSTLSGVTNITTPSCHSGCSSGTSAITTSLPQLGDLTTLGNFSVINSNVIIENLQSTKVAVAQFSQEARCGGASGGKLLISTLMEQLLALQQQQIHQLQLIEQIRHQILLLASQSADLPAAPSIPSQGTLRTSANPLTTLSSHLSQQLAVAAGLAQSLASQSANISGVKQLPHVQLPQSSSGTSIVPPSGGTSPNMSIVTAAVPTPSSEKVASNAGASHVSSPAVSASSSPAFAISSLLSPESNPLLPQPTPANAVFPTPLPNIATTAEDLNSLSALAQQRKSKPPNVTAFEAKSTSDEAFFKHKCRFCAKVFGSDSALQIHLRSHTGERPFKCNICGNRFSTKGNLKVHFQRHKEKYPHIQMNPYPVPEHLDNVPTSTGIPYGMSIPSEKPVTSWLDTKPVLPTLTTSVGLPLPPTLPSLTPFIKTEEPAPIPISHSAASPQGSVKSDSGAPDLATRNPSGVPEEVEGSAVPPFGGKGEESNMASSAVPTAGNSTLNSPVADGGPGGTTFTNPLLPLMSEQFKAKFPFGGLLDSAQASETSKLQQLVENIDKKATDPNECIICHRVLSCQSALKMHYRTHTGERPFKCKICGRAFTTKGNLKTHYSVHRAMPPLRVQHSCPICQKKFTNAVVLQQHIRMHMGGQIPNTPVPDNYPESMESDTGSFDEKNFDDLDNFSDENMEECPEGSIPDTPKSADASQDSLSSSPLPLEMSSIAALENQMKMINAGLAEQLQASLKSVENGSMEGDVLTNDSSSVGGDMESQSAGSPAISESTSSMQALSPSNSTQEFHKSPGMEEKPQRVGPGEFANGLSPTPVNGGALDLTSSHAEKIIKEDSLGILFPFRDRGKFKNTACDICGKTFACQSALDIHYRSHTKERPFICTVCNRGFSTKGNLKQHMLTHQMRDLPSQLFEPSSNLGPNQNSAVIPANSLSSLIKTEVNGFVHVSPQDSKDAPTSHVPQGPLSSSATSPVLLPALPRRTPKQHYCNTCGKTFSSSSALQIHERTHTGEKPFACTICGRAFTTKGNLKVHMGTHMWNSTPARRGRRLSVDGPMTFLGGNPVKFPEMFQKDLAARSGSGDPSSFWNQYTAALSNGLAMKANEISVIQNGGIPPIPGSLGSGSSPISGLTGNVEKLGNSEPSAPLAGLEKMASSENGTNFRFTRFVEDSKEIVTS
binds	Dax1 (protein, UniProt Q61066 1-472) MAGEDHPWQGSILYNLLMSAKQKHASQEEREVRLGAQCWGCACGAQPVLGGERLSGGQARSLLYRCCFCGENHPRQGGILYSMLTNARQPSVATQAPRARFGAPCWGCACGSAEPLVGREGLPAGQAPSLLYRCCFCGEEHPRQGSILYSLLTSAQQTHVSREAPEAHRRGEWWQLSYCTQSVGGPEGLQSTQAMAFLYRSYVCGEEQPQQISVASGTPVSADQTPATPQEQPRAPWWDASPGVQRLITLKDPQVVCEAASAGLLKTLRFVKYLPCFQILPLDQQLVLVRSCWAPLLMLELAQDHLHFEMMEIPETNTTQEMLTTRRQETEGPEPAEPQATEQPQMVSAEAGHLLPAAAVQAIKSFFFKCWSLNIDTKEYAYLKGTVLFNPDLPGLQCVKYIEGLQWRTQQILTEHIRMMQREYQIRSAELNSALFLLRFINSDVVTELFFRPIIGAVSMDDMMLEMLCAKL
binds	Nanog (protein, UniProt Q80Z64 1-305) MSVGLPGPHSLPSSEEASNSGNASSMPAVFHPENYSCLQGSATEMLCTEAASPRPSSEDLPLQGSPDSSTSPKQKLSSPEADKGPEEEENKVLARKQKMRTVFSQAQLCALKDRFQKQKYLSLQQMQELSSILNLSYKQVKTWFQNQRMKCKRWQKNQWLKTSNGLIQKGSAPVEYPSIHCSYPQGYLVNASGSLSMWGSQTWTNPTWSSQTWTNPTWNNQTWTNPTWSSQAWTAQSWNGQPWNAAPLHNFGEDFLQPYVQLQQNFSASDLEVNLEATRESHAHFSTPQALELFLNYSVTPPGEI
binds	Zfp281 (protein, UniProt Q99LI5 1-893) MKIGSGFLSGGGGPSSSGGSGSGGSSGSASGGSGGGRRAEMEPTFPQSMVMFNHRLPPVTSFTRPAGTAAPPPQCVLSSSTSAAPAAEPPPPPAPDMTFKKEPAASAAAFPSQRTSWGFLQSLVSIKQEKPADPEEQPSHHHHHHHHYGGLFAGAEERSPGLGGGEGGSHGVIQDLSLLHQHAQQQPAQHHRDVLLSSGSRTDEHGNQEPKQDANVKKAKRPKPESQGIKAKRKPSASSKPLVGEGEGAVLSPSQKPHICDHCSAAFRSSYHLRRHVLIHTGERPFQCSQCSMGFIQKYLLQRHEKIHSREKPFGCDQCSMKFIQKYHMERHKRTHSGEKPYKCDTCQQYFSRTDRLLKHRRTCGEAIAKGAASAEPGSSNHNSMGNLAVLSQGNTSSSRRKSKSKSIAIENKEHKTGKTNESQMSNNINMQSYSVEMPTVSTSGSIIGTGIDELQKRVPKLIFKKGSRKNADKSYLNFVSPLPDVVGQKSLSGKPGGSLGIVSNNSVETISLLQSTSGKQGPISSNYDDAMQFSKKRRYLPTASSNSAFSINVGHMVSQQSVIQSAGVSVLDNEAPLSLIDSSALNAEIKSCHDKSGIPDEVLQSILDQYSGKSETQKEDPFNLTEPRVDLHTSGEHSELVQEENLSPGTQTPSNDKTSMLQEYSKYLQQAFEKSTNAGFTLGHGFQFVSLSSPLHNHTLFPEKQIYTTSPLECGFGQSVTSVLPSSLPKPPFGMLFGSQPGLYLSALDATHQQLTPSQELDDLIDSQKNLETSSAFQSSSQKLTSQKEQQKNLESSTSFQIPSQELASQIDPQKDIEPRTTYQIENFAQAFGSQFKSGSRVPMTFITNSNGEVDHRVRTSVSDFSGYTNMMSDVSEPCSTRVKTPTSQSYR
binds	E3 ubiquitin-protein ligase TRIM33 (protein, UniProt Q99PP7 1-1142) MAENKGGGEAESGGGGSGSAPVTAGAAGPTAQEAEPPLAAVLVEEEEEEGGRAGAEGGAAGPDDGGVAAASSSSAPAASVPAASVGSAVPGGAASTPAPAAAPAPAPAPAPAPAPAPAPAPAPGSSSGPPLGPPASLLDTCAVCQQSLQSRREAEPKLLPCLHSFCLRCLPEPERQLSVPIPGGSNGDVQQVGVIRCPVCRQECRQIDLVDNYFVKDTSEAPSSSDEKSEQVCTSCEDNASAVGFCVECGEWLCKTCIEAHQRVKFTKDHLIRKKEDVSESVGTSGQRPVFCPVHKQEQLKLFCETCDRLTCRDCQLLEHKEHRYQFLEEAFQNQKGAIENLLAKLLEKKNYVHFAATQVQNRIKEVNETNKRVEQEIKVAIFTLINEINKKGKSLLQQLENVTKERQMKLLQQQNDITGLSRQVKHVMNFTNWAIASGSSTALLYSKRLITFQLRHILKARCDPVPAANGAIRFHCDPTFWAKNVVNLGNLVIESKPAPGYTPNVVVGQVPPGTNHISKTPGQINLAQLRLQHMQQQVYAQKHQQLQQMRLQQPPAPIPTTTATTQQHPRQAAPQMLQQQPPRLISVQTMQRGNMNCGAFQAHQMRLAQNAARIPGIPRHSAPQYSMMQPHLQRQHSNPGHAGPFPVVSAHNPINPTSPTTATMANANRGPTSPSVTAIELIPSVTNPENLPSLPDIPPIQLEDAGSSSLDNLLSRYISGSHLPPQPTSTMNPSPGPSALSPGSSGLSNSHTPVRPPSTSSTGSRGSCGSSGRTAEKSAHSFKSDQVKVKQEPGTEEEICSFSGAVKQEKTEDGRRSACMLSSPESSLTPPLSTNLHLESELDTLTGLENHVKTEPTDISESCKQSGLSNLVNGKSPIRNLMHRSARIGGDGNSKDDDPNEDWCAVCQNGGDLLCCEKCPKVFHLTCHVPTLLSFPSGDWICTFCRDIGKPEVEYDCDNMQHSKKGKTAQGLSPVDQRKCERLLLYLYCHELSIEFQEPVPVSIPNYYKIIKKPMDLSTVKKKLQKKHSQHYQIPDDFVADVRLIFKNCERFNEMMKVVQVYADTQEINLKGDSEVAKAGKAVALYFEDKLSEIYSDRTFTPLPEFEQDEDDGEVTEDSDEDFIQPRRKRLKSDERPVHIK

Results are given in words; binding and its absence hold for the method and conditions named. Binding seen in cells or lysates may run through a third protein. Here binding means that the protein was enriched with, or labelled near, the bait; the list need not be complete.
